Our source for the binding values is publication PMC8325689.

These are yes or no findings as the source states them, for the method shown. In cells and extracts the contact can be indirect. For part of these data: A result given as binding can be weak or reduced; the word gives no strength.

The target in test [1] is FLAG-hnRNPL ΔRRM3 mutant (human (gene amplified from HEK293T cells)) (UniProt P14866). Briefly: co-IP; lysates of HEK293T cells transiently expressing FLAG-hnRNPL (1-583) or its deletion mutants, FLAG M2 beads, blot with anti-FBXO16 for endogenous FBXO16.
For test [2], the target named is FLAG-FBXO16 C-terminal deletion mutant (human (gene amplified from HEK293T cells)). Briefly: co-IP; lysates of HEK293T cells expressing FLAG-FBXO16 (stable or transient) or its deletion mutants, FLAG M2 beads 4 h at 4 °C, IP buffer (150 mM NaCl, 20 mM Tris-HCl pH 8.0, 0.5 mM EDTA, 0.5% NP-40), eluted with 3xFLAG peptide, blot for endogenous hnRNPL.
Test [3] deals with FLAG-FBXO16 N-terminal deletion mutant (human (gene amplified from HEK293T cells)). The test is described as above.

B1: FBXO16, endogenous (protein, UniProt Q8IX29 1-292)
chain: MMAFAPPKNTDGPKMQTKMSTWTPLNHQLLNDRVFEERRALLGKWFDKWTDSQRRRILTGLLERCSLSQQKFCCRKLQEKIPAEALDFTTKLPRVLSLYIFSFLDPRSLCRCAQVCWHWKNLAELDQLWMLKCLRFNWYINFSPTPFEQGIWKKHYIQMVKELHITKPKTPPKDGFVIADVQLVTSNSPEEKQSPLSAFRSSSSLRKKNNSGEKALPPWRSSDKHPTDIIRFNYLDNRDPMETVQQGRRKRNQMTPDFSRQSHDKKNKLQDRTRLRKAQSMMSRRNPFPLCP
For the molecule B1, in test [1], the binding entry is given as “no binding”.

B2: heterogeneous nuclear ribonucleoprotein L (hnRNPL), endogenous (protein, UniProt P14866 1-589)
chain: MSRRLLPRAEKRRRRLEQRQQPDEQRRRSGAMVKMAAAGGGGGGGRYYGGGSEGGRAPKRLKTDNAGDQHGGGGGGGGGAGAAGGGGGGENYDDPHKTPASPVVHIRGLIDGVVEADLVEALQEFGPISYVVVMPKKRQALVEFEDVLGACNAVNYAADNQIYIAGHPAFVNYSTSQKISRPGDSDDSRSVNSVLLFTILNPIYSITTDVLYTICNPCGPVQRIVIFRKNGVQAMVEFDSVQSAQRAKASLNGADIYSGCCTLKIEYAKPTRLNVFKNDQDTWDYTNPNLSGQGDPGSNPNKRQRQPPLLGDHPAEYGGPHGGYHSHYHDEGYGPPPPHYEGRRMGPPVGGHRRGPSRYGPQYGHPPPPPPPPEYGPHADSPVLMVYGLDQSKMNCDRVFNVFCLYGNVEKVKFMKSKPGAAMVEMADGYAVDRAITHLNNNFMFGQKLNVCVSKQPAIMPGQSYGLEDGSCSYKDFSESRNNRFSTPEQAAKNRIQHPSNVLHFFNAPLEVTEENFFEICDELGVKRPSSVKVFSGKSERSSSGLLEWESKSDALETLGFLNHYQMKNPNGPYPYTLKLCFSTAQHAS
For the molecule B2, the binding result in test [2] is on record as “no binding”; in test [3] it was “binds”.
